Laboratory results: PubChem BioAssay AID1259424 (University of Nebraska Medical Center, 2018)
This is a random part of about 14,000 deposited reagents. 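Higher correlation or smaller distance means closer resemblance to KSR1 loss; control wells, including KSR1 knockdowns, recur on many plates.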 Some reagents were tested in more than one well and are listed for each. The record does not give: the time to read-out.

Purpose: 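Find knockdowns that reproduce the expression shifts seen after KSR1 loss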 (primary screen)
Cell system: human HCT116 colon cancer cells
Knock-down reagent: siRNA pool against human genes, 50 nM
Measurement: 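Log2 levels of six mRNAs (branched-DNA multiplex), adjusted by two reference genes and the non-targeting median, then scored against the average KSR1 knockdown pattern as Pearson r and euclidean distance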
Reading the numbers: mean correlation with KSR1 profile and KSR1 correlation: higher = expression change more like KSR1 knockdown; mean distance from KSR1 profile: higher = expression change less like KSR1 knockdown

gene	mean correlation with KSR1 profile	mean distance from KSR1 profile	KSR1 correlation, replicate 1	KSR1 correlation, replicate 2	KSR1 correlation, replicate 3
CERK	0.533	1.45	0.506	0.26	0.557
TOMM34	0.0831	1.78	0.193	0.0417	-0.0218
TPCN1	-0.181	1.55	-0.102	-0.178	0.0161
DSE	-0.338	1.32	-0.527	-0.553	-0.103
UGT2B7	-0.296	4.23	-0.246	-0.312	-0.334
TPD52L3	-0.232	1.4	0.582	-0.542	-0.54
FGF1	-0.198	1.09	-0.294	-0.163	0.0727
RARB	0.255	1.14	0.407	0.19	0.0965
RARB	-0.115	2.57	-0.0995	-0.147	-0.306
SARS1	0.178	2.01	0.0679	-0.0177	0.419
HSPA9	0.828	1.09	0.93	0.542	0.432
TMEM63A	-0.934	1.62	-0.889	-0.809	-0.747
CCDC87	-0.832	5.7	-0.846	-0.863	-0.532
FLT1	0.809	3.17	0.696	0.652	0.731
KIFC3	0.0933	2.14	-0.0183	0.165	0.438
E2F3	-0.366	1.8	-0.348	-0.322	-0.455
BRI3BP	0.104	1.02	-0.158	-0.126	0.565
BLVRB	-0.475	3.25	-0.638	-0.489	-0.521
CEP43	-0.565	2.81	-0.613	-0.77	-0.611
PHB2	-0.369	2.85	-0.352	-0.27	-0.567

An excerpt from the list above, for reference:
gene	mean correlation with KSR1 profile	mean distance from KSR1 profile	KSR1 correlation, replicate 1	KSR1 correlation, replicate 2	KSR1 correlation, replicate 3
UGT2B7	-0.296	4.23	-0.246	-0.312	-0.334
TPD52L3	-0.232	1.4	0.582	-0.542	-0.54
